# Laboratory results published in patent US20040063907A1 (published 2004).
# Target: HLA-A*0201 (human)
# Assay: fluorescence polarization competition, test peptide at 100 uM
binder,measurement,value
ITNSRPPCV [C35 peptide I105 to V113],binding,binds

# No constants are given. Whether binding was seen depends on the method and setting. Binding calls can cover weak binding; strength is not graded here.
